Test system: human acetylcholine receptor M3R subtype
Assay: GRAB-ACh sensor fluorescence response to ACh, drug perfusion in HEK293T cells
Assay type: cell-based
Conditions: 100 μM ACh perfusion, n=10 cells per group
Method: After DNA encoding specific GRAB sensor was introduced into cells by transfection, fluorescence imaging combined with perfusion experiment was. The imaging capture of HEK293T cells was performed using an Olympus IX81 inverted microscope, 40×NA: 1.35 oil lens, 475/28 excitation light filter, and 515LP emission light filter. The optical signal was collected by a Zyla sCMOS DG-152V-Cle FI camera (Andor), and Lambda DG-4 from Sutter Instuments company was used as a fluorescent light source. The exposure time was set to less than 50 ms and the acquisition frequency was 5 seconds. The entire imaging system was overall controlled by micromanager software.
The detection of the response of the GRAB sensor to the ligand (ΔF/F0) was performed using a drug perfusion method. […]
Fluorescence imaging data was processed using ImageJ software. For the performance of GRAB sensors in HEK293T cells and neurons, the fluorescence of entire cell body was selected as the data processing region. For living Drosophila imaging, fluorescence images on the same Z axis were analyzed by ImageJ software. The change in the fluorescence signal was indicated by its relative difference. The signal of background area without the expression of the sensor was first subtracted from the fluorescence signal, so as to obtain the real expression of the intensity of the fluorescent protein. […]

**Q.** For “GRAB-ACh 2.0: GRAB-ACh variant with GG-APSVA peptide linkers, SEQ ID NO: 16”, which signal-to-noise ratio is on record?
**A.** Its signal-to-noise ratio is 724±9.
